According to the supplement of paper PMC12067093, “Discovery and optimisation of a covalent ligand for TRIM25 and its application to targeted protein ubiquitination” (Chemical Science, 2025):
The other results are listed elsewhere or left out.

Amino acid sequences for entries named in this document (tags omitted). A change or cut given only in a name is not applied to a line headed by its entry.
UniProt Q9Y697: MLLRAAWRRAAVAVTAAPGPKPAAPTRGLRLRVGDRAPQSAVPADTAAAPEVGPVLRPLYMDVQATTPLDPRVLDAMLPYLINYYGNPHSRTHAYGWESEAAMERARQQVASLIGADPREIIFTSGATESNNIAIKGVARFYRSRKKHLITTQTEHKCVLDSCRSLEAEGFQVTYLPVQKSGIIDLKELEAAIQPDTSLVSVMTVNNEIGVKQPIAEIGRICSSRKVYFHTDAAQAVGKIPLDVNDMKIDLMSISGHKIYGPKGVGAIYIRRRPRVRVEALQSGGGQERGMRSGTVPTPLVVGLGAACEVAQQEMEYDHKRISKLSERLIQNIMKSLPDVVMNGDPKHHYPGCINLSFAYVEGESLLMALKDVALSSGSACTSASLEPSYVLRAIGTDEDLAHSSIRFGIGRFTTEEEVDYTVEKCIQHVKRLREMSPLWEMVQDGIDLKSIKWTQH
UniProt O60524: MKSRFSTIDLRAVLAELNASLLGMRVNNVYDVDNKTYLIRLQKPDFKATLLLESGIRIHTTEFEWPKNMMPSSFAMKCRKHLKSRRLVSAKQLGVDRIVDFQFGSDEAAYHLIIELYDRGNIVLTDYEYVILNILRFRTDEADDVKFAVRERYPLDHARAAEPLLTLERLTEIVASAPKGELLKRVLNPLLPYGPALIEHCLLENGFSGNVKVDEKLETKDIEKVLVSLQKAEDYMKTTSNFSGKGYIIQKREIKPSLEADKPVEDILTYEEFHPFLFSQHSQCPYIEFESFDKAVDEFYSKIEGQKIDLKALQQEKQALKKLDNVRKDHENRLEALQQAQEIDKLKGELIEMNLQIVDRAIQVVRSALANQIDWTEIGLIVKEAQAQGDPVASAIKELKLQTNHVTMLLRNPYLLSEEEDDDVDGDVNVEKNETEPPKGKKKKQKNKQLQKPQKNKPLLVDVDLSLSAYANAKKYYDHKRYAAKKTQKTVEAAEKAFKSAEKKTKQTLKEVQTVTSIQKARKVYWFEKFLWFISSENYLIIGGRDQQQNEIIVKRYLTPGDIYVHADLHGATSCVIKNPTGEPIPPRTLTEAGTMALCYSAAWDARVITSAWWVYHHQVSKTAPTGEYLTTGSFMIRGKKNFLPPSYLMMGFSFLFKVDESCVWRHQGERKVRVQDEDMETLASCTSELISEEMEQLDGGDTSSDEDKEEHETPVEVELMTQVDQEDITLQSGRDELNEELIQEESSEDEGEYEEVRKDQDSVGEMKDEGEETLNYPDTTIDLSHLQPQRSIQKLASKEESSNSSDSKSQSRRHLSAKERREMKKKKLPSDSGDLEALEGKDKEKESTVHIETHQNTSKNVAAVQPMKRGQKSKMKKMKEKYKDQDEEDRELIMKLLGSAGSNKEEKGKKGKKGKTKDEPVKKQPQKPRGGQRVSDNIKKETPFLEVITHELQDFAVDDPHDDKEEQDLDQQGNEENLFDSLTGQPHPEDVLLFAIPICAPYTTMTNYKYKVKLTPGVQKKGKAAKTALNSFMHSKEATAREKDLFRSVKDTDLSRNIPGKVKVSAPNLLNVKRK
UniProt O43678, whole entry, looked up: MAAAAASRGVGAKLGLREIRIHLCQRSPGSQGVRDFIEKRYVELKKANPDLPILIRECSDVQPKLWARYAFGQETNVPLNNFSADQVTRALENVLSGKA
UniProt Q9P032: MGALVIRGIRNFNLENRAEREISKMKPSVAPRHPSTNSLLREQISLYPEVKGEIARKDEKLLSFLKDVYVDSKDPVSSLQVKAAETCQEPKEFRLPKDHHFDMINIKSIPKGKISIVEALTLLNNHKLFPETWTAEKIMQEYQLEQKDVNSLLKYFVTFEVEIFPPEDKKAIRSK
UniProt Q6KC79: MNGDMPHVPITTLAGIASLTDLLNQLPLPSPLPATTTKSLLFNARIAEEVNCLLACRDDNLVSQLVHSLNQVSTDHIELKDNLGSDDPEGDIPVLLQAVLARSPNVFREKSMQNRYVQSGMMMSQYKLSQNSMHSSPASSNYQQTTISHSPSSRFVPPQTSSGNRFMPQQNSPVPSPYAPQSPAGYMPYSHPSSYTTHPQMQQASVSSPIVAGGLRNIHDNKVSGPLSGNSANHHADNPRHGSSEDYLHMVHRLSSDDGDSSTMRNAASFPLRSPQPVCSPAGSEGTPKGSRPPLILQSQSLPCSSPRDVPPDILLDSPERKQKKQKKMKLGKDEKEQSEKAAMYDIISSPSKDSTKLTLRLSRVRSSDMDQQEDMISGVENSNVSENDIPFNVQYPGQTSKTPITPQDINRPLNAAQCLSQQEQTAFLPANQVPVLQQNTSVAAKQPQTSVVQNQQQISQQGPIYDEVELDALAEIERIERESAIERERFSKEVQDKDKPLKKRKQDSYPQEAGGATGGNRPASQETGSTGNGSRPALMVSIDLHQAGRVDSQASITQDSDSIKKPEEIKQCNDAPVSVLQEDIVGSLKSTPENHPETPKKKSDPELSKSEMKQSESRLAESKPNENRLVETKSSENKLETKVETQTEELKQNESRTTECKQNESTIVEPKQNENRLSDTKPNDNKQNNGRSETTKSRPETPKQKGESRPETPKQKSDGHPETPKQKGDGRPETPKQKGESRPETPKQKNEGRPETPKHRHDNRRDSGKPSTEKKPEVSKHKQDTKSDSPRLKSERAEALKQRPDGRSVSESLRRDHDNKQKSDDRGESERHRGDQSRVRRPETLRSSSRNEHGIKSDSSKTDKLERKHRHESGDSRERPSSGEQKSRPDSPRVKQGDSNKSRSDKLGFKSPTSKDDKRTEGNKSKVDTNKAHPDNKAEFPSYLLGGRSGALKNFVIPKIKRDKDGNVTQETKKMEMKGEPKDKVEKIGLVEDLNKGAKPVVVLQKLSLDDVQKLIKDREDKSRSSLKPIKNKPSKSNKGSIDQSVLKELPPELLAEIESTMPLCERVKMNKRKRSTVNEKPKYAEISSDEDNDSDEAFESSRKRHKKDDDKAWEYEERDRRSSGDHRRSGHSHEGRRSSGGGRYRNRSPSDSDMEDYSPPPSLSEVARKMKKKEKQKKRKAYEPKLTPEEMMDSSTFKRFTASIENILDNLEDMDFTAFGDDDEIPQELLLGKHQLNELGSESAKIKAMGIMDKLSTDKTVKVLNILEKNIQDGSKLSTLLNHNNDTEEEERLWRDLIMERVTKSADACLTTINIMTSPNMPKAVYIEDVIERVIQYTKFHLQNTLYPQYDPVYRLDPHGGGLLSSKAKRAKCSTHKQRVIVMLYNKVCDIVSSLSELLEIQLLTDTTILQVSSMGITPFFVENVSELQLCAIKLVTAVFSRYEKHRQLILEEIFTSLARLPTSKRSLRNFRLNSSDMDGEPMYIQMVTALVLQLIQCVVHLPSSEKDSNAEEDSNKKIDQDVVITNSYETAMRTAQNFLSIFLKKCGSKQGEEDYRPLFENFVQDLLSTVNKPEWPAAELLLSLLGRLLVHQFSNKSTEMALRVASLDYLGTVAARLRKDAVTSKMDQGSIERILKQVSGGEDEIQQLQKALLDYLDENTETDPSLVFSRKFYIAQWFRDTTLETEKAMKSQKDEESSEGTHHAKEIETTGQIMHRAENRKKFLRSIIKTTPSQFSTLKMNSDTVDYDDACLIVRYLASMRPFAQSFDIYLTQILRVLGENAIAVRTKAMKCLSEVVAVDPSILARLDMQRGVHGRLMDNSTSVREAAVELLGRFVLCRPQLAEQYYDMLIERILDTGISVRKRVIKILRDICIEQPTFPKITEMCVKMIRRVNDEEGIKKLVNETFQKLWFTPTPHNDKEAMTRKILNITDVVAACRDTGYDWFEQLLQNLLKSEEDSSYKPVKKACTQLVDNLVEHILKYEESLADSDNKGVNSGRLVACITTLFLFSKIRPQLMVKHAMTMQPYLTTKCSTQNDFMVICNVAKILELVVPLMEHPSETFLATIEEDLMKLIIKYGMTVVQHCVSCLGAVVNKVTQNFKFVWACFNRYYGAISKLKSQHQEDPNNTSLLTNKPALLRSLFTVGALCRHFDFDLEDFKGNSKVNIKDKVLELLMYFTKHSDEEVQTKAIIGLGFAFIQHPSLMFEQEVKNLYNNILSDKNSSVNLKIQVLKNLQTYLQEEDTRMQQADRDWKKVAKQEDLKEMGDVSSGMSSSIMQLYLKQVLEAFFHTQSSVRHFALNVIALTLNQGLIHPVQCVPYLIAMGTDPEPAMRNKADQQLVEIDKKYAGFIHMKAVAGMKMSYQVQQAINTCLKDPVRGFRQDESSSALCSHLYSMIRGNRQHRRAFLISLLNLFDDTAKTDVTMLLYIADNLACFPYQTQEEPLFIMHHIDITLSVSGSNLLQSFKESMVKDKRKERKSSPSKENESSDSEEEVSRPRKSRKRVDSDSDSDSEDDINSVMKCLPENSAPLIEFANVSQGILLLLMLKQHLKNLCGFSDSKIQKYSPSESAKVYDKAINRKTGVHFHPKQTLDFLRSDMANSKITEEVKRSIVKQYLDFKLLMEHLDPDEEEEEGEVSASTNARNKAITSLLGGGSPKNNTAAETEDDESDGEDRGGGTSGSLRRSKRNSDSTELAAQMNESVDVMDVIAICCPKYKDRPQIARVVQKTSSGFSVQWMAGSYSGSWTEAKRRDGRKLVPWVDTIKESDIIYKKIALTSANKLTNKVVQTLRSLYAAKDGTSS
UniProt Q8WX92, whole entry, looked up: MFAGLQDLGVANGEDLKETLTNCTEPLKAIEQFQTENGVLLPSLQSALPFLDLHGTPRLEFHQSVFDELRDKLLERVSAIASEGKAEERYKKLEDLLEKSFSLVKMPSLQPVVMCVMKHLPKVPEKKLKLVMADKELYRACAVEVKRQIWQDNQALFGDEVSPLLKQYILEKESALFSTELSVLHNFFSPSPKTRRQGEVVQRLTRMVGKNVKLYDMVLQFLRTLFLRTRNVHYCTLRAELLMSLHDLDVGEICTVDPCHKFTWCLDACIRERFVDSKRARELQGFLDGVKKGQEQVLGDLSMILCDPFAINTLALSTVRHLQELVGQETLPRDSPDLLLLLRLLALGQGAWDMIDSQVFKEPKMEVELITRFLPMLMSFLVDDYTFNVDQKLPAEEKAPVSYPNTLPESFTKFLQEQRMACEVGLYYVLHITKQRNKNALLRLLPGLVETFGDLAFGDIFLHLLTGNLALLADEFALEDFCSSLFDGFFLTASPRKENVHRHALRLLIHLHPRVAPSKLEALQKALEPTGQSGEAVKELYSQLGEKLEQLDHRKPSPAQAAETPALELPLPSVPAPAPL
UniProt P14543: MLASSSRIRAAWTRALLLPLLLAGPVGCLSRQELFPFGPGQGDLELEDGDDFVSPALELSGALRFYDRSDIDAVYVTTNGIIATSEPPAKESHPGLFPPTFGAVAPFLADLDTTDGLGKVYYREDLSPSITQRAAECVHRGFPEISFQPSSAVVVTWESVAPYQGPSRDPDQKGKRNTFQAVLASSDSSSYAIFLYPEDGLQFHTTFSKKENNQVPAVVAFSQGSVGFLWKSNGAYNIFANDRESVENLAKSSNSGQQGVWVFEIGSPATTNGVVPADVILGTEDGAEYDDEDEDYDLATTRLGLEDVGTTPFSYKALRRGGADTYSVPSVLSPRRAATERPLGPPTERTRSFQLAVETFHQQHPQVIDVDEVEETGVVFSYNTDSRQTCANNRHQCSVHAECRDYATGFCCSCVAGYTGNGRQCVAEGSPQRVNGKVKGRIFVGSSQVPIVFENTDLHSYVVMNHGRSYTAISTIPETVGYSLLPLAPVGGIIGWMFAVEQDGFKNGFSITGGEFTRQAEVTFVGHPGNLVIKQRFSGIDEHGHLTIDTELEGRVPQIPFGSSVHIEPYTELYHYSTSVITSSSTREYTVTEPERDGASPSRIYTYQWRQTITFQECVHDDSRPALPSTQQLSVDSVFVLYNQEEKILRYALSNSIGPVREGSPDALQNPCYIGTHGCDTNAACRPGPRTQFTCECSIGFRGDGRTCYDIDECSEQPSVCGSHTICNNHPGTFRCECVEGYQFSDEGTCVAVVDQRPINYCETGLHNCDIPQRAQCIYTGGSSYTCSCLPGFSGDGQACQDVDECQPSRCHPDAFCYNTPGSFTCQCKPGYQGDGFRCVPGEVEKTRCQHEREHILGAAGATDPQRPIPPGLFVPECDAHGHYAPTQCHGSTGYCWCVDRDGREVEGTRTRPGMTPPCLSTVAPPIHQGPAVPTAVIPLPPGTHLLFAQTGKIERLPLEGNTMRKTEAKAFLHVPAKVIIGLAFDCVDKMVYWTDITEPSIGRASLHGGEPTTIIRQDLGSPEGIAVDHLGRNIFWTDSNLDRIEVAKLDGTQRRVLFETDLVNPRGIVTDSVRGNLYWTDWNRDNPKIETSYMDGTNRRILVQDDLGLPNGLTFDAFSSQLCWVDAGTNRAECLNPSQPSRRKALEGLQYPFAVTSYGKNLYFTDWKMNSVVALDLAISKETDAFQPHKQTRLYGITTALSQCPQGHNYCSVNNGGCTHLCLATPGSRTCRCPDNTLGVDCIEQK

Compound: Cc1cc(ccc1-c1ccccc1)C(=O)N1CCCN(CC1)C(=O)CCl [compound 10]
Assay: probe-labelled cysteine peptide fold change vs DMSO (competition) (log2 fold change); higher = less target engagement (more negative = stronger competition)
Conditions: THP-1, incubation time: 4 h
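Note: competitive profiling in live THP-1 cells: cysteine peptides tagged with an iodoacetamide desthiobiotin (IA-DTB) probe, intensity after compound treatment relative to DMSO-treated cells.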

Row | Target | probe-labelled cysteine peptide fold change (10 µM) | probe-labelled cysteine peptide fold change (50 µM)
1 | NDUFS1_P28331_367_VDSDTLCTEEVFPTAGAGTDLR (UniProt P28331) | -0.274 | 0.149
2 | NFS1_Q9Y697_308_SGTVPTPLVVGLGAACEVAQQEMEYDHKR (UniProt Q9Y697) | -0.235 | 0.165
3 | NEMF_O60524_575_YLTPGDIYVHADLHGATSCVIK (UniProt O60524) | 0.142 | 0.325
4 | NDUFA2_O43678_24_IHLCQR (UniProt O43678) | -0.0204 | -0.32
5 | NDUFV1_P49821_125_YLVVNADEGEPGTCK (UniProt P49821) | -0.253 | -0.07
6 | NDUFAF4_Q9P032_87_AAETCQEPK (UniProt Q9P032) | -0.265 | -0.321
7 | NIPBL_Q6KC79_1971_ACTQLVDNLVEHILK (UniProt Q6KC79) | 0.351 | 0.433
8 | NFKBIE_O00221_438_MLNGCTPLHLAAGR (UniProt O00221) | -0.0872 | -0.217
9 | NELFB_Q8WX92_115_MPSLQPVVMCVMK (UniProt Q8WX92) | -0.0237 | -0.514
10 | NKRF_O15226_386_VFLQDHCLAEGYGTK (UniProt O15226) | 0.0654 | 0.266
11 | NID1_P14543_425_QCVAEGSPQR (UniProt P14543) | -0.139 | -0.633
12 | NKIRAS2_Q9NYR9_10_VVVCGQASVGK (UniProt Q9NYR9) | -0.00923 | -0.0492
13 | NFXL1_Q6ZNB6_335_CENPCHAGSCQPCPR (UniProt Q6ZNB6) | 0.133 | -0.055
14 | NDUFA10_O95299_253_CEVLQYSAR (UniProt O95299) | -0.141 | -0.0217

Some of the entries so far, as labelled records:
NIPBL_Q6KC79_1971_ACTQLVDNLVEHILK (UniProt Q6KC79)
  probe-labelled cysteine peptide fold change (10 µM) = 0.351; probe-labelled cysteine peptide fold change (50 µM) = 0.433
NELFB_Q8WX92_115_MPSLQPVVMCVMK (UniProt Q8WX92)
  probe-labelled cysteine peptide fold change (10 µM) = -0.0237; probe-labelled cysteine peptide fold change (50 µM) = -0.514
